The values that follow come from paper PMC2949800.

The chains behind the UniProt entries cited, without tags or fusion partners. Where a name states a change or a piece, a line headed by the entry shows the natural chain unless it says otherwise.
UniProt P31314: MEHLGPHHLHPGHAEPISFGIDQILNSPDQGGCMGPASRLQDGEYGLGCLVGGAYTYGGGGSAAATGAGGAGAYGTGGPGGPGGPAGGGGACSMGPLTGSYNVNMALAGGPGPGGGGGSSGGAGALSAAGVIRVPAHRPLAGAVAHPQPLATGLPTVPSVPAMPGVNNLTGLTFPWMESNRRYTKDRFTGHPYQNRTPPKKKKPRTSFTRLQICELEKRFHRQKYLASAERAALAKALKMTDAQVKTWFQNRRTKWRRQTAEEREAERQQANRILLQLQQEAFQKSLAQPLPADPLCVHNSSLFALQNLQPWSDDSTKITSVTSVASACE

This data set addresses FLAG-HOX11 wild type (UniProt P31314). The data set is described as follows: EMSA. To be noted: 10 mM Tris-HCl pH 7.6, 50 mM NaCl, 1 mM EDTA, 5% glycerol, 6 ug nuclear extract in 10 ul, room temperature 30 min; 6% native PAGE, 0.5x TBE, EMSA stain; protein in an extract; label: none (gel stained). For orientation: A gel shift assay detects complexes by their altered migration in electrophoresis.

Construct, isoform or probe ends are uncertain for at least one entry. Where cells or extracts were used, other partners may take part.

In the case of “TCCATCCCAGTAATAAGTGTTTT (double strand) [CCNB1 promoter TAAGTG probe]”, the binding result is given as “binds”.
